Laboratory results from the supplement of paper PMC10849652.
The list shows a part of the results.

The chains behind the UniProt entries cited, without tags or fusion partners. Where a name states a change or a piece, a line headed by the entry shows the natural chain unless it says otherwise.
UniProt Q8WTW3: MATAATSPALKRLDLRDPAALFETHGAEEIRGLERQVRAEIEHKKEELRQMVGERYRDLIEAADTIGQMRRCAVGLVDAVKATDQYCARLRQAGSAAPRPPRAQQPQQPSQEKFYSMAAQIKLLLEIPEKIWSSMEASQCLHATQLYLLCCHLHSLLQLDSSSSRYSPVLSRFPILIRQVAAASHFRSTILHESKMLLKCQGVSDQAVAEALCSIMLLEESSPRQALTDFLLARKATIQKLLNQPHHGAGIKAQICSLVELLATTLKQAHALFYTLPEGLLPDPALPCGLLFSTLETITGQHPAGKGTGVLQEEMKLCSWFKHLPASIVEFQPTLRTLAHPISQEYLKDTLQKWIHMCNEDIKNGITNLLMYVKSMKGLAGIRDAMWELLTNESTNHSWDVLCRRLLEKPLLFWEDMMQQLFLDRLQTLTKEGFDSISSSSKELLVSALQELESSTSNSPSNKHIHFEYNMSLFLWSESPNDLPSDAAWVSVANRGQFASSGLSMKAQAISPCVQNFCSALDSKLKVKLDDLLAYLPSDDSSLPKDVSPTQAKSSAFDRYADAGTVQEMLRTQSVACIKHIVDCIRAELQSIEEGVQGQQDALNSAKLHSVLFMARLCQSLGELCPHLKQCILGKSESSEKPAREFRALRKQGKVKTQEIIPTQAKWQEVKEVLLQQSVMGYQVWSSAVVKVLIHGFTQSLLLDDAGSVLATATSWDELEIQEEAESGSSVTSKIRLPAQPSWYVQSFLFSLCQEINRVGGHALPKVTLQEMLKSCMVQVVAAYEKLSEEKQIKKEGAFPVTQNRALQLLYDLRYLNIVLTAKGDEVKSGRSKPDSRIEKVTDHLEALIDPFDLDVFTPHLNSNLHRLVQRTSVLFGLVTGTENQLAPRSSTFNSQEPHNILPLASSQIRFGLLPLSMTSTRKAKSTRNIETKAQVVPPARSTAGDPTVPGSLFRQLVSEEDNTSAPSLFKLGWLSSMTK
UniProt P53618: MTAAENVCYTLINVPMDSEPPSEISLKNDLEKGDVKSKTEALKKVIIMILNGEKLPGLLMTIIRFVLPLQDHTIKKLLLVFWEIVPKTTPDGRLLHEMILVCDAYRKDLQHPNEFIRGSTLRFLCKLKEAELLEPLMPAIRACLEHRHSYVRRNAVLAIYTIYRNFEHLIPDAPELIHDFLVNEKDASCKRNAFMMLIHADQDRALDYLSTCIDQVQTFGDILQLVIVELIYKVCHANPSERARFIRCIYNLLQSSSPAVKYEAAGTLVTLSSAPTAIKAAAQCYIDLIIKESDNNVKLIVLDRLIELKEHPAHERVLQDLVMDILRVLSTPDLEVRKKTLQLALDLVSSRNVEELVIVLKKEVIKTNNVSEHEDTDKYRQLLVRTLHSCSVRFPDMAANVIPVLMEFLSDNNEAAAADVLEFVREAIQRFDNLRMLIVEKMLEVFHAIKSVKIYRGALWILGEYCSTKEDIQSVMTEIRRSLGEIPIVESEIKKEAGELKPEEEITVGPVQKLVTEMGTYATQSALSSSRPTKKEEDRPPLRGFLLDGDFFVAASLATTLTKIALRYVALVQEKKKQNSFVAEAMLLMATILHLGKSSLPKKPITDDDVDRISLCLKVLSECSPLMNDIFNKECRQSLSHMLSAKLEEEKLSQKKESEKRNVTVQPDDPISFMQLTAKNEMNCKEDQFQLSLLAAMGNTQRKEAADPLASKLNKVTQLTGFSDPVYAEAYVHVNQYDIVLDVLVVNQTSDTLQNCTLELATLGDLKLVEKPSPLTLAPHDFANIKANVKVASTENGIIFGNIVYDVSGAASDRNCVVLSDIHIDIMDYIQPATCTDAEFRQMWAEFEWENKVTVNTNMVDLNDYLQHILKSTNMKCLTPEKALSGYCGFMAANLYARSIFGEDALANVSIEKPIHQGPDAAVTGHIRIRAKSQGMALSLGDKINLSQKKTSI
UniProt Q96JB2: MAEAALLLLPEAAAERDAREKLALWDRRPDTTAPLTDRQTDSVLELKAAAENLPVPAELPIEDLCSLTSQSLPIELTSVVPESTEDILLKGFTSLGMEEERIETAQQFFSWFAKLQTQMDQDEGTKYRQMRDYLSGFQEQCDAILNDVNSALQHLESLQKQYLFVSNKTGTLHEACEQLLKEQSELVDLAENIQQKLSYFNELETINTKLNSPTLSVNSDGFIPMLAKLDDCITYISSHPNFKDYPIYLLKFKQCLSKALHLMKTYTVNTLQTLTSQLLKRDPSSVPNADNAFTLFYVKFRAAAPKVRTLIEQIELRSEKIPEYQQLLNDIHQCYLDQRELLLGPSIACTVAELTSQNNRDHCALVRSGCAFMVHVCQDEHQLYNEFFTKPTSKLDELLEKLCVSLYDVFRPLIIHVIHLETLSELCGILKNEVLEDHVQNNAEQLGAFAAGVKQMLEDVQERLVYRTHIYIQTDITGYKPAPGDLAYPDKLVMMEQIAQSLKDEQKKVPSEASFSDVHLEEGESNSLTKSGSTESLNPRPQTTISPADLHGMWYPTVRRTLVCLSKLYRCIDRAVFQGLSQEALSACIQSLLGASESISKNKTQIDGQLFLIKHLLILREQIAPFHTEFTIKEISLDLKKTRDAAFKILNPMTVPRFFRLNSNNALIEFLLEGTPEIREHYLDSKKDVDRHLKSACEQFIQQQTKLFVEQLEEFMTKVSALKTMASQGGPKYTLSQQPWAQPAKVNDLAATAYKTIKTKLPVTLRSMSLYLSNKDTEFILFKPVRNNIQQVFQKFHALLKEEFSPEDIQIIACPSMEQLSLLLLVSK
UniProt P09543: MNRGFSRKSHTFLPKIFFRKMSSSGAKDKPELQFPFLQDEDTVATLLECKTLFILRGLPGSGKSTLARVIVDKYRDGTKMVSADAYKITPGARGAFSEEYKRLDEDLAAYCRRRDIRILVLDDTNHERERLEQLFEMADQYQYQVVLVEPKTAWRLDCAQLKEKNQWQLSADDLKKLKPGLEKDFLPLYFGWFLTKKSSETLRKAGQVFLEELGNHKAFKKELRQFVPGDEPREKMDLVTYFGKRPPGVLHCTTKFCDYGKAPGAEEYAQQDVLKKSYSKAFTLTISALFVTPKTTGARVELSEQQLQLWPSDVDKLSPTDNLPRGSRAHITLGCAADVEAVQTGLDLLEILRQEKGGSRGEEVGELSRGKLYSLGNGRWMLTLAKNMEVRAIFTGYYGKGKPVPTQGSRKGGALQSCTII
UniProt P50416: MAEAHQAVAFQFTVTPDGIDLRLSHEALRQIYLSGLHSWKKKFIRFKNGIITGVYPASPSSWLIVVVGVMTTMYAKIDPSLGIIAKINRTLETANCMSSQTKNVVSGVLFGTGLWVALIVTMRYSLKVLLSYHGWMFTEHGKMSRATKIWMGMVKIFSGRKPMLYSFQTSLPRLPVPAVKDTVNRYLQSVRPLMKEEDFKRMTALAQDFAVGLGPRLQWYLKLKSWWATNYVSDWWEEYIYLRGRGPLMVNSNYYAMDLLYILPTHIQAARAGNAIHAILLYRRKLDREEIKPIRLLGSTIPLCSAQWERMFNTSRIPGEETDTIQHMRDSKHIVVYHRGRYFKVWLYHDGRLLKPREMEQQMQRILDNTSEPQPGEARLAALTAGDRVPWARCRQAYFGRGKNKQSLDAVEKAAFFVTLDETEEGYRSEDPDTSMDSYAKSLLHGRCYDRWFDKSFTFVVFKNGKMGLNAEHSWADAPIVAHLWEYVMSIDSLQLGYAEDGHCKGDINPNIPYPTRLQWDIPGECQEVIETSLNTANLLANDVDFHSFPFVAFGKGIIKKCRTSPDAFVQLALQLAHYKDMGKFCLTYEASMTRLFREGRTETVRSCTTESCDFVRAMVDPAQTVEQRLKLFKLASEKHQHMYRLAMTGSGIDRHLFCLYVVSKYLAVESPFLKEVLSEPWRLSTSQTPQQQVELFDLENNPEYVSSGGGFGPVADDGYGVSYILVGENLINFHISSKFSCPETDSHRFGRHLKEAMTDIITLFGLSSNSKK
UniProt P31327: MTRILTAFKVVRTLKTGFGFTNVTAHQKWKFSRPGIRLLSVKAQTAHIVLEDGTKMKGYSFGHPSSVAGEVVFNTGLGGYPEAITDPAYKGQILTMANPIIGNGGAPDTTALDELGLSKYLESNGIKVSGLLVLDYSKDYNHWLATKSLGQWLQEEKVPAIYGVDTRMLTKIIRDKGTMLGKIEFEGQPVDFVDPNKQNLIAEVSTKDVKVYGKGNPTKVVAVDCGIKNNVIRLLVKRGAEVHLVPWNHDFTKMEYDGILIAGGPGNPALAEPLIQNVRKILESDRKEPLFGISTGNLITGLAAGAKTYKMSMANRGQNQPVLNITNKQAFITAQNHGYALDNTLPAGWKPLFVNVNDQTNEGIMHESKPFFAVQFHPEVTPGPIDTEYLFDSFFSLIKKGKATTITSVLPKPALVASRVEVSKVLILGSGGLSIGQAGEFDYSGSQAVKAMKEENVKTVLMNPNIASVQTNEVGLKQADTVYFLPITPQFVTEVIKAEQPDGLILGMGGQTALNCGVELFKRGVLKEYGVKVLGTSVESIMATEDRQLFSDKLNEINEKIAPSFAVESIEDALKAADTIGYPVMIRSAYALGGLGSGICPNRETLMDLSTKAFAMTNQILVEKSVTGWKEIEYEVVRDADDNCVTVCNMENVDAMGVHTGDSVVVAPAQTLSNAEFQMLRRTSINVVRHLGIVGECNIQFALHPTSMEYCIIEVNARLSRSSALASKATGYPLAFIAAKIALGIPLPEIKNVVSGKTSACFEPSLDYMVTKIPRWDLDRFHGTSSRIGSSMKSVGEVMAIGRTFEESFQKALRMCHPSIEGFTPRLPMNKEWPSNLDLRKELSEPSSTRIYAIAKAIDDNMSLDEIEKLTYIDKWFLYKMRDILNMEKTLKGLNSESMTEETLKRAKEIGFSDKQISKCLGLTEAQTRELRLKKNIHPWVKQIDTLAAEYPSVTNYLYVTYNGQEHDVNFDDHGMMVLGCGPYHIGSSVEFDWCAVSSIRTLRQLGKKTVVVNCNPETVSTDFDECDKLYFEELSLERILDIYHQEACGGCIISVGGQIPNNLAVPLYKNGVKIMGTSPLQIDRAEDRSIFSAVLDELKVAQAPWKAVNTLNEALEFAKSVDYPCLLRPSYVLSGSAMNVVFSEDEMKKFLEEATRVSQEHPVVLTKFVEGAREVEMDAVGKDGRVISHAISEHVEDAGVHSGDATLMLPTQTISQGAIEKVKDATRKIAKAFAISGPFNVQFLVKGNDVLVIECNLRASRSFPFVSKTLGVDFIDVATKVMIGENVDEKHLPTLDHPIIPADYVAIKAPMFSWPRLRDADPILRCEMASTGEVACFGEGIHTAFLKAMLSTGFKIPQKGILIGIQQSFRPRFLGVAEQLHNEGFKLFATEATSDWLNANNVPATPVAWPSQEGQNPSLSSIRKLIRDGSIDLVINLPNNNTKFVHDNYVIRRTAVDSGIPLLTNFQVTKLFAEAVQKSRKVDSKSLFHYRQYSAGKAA
UniProt Q9NX08, whole entry, looked up: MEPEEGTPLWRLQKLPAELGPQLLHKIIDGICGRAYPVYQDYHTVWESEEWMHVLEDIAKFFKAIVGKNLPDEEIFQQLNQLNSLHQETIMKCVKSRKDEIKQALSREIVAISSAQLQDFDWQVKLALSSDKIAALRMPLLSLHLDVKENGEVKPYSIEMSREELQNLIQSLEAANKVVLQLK
UniProt P36551: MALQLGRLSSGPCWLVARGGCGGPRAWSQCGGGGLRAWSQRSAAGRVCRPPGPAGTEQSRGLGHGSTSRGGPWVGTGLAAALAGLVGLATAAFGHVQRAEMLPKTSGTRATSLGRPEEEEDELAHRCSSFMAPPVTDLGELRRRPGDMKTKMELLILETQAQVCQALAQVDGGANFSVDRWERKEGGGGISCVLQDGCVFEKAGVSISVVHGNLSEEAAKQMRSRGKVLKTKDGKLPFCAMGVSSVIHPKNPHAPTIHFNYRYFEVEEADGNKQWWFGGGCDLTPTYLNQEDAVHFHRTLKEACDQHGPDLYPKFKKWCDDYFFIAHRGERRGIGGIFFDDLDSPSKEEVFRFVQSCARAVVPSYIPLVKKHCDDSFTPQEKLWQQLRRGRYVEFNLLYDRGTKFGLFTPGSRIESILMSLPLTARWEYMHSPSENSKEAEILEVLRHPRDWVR
UniProt Q9UNS2: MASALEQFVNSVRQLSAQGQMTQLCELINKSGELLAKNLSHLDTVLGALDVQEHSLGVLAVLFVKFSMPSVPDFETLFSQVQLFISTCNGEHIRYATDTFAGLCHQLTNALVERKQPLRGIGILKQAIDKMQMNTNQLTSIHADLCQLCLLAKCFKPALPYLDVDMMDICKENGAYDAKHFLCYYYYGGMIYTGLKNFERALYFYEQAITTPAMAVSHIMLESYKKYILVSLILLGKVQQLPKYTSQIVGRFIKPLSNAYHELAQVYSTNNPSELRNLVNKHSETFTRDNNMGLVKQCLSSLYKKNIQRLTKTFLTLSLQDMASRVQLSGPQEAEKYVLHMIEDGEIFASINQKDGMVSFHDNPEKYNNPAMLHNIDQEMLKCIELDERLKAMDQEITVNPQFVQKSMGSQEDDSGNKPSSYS

Assays:
Assay in all cases: log2 fold change, soluble protein after heating vs DMSO (PISA); higher = thermal stabilisation; K562 lysate, 10 uM; active = over 0.2 and 3.5 SD of the protein, either way, in both replicates (recomputed)
erlotinib = compound: C#Cc1cccc(Nc2ncnc3cc(OCCOC)c(OCCOC)cc23)c1 [erlotinib]
In short: (§1)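 Quantification was by TMTpro 16plex LC-MS/MS with equalised channel sums, applied to the supernatant after 21,000xg for 90 min. Samples were crude K562 extract at 1 mg/mL protein in PBS pH 7.4 with 1 mM MgCl2, treated with 10 μM compound for 30 min, heated for 3 min across 48°C-58°C, pooled and brought to 0.5% NP-40 at 4°C. Values are log-two fold changes in thermal stability relative to solvent controls, from duplicates.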

[1] = compound: C/C(=N\NC(=O)C1=CC(=CC=C1)S(=O)(=O)N2CCOCC2)/C3=C(C=CC(=C3)Cl)O
In short: as §1

[2] = compound: C1=CC(=CC=C1C2=NC3=C(N2)C=C(C=C3)C(=O)N)OC4=CC=C(C=C4)Cl
In short: as §1

[3] = compound: C1=CC2=C(C=CC(=C2)/C=C\3/C(=O)NC(=NCC4=CC=CS4)S3)N=C1
In short: as §1

[4] = compound: C1=CC2=NC=CN=C2C=C1/C=C/3\C(=O)NC(=O)S3
In short: as §1

[5] = compound: C1=CC=C(C=C1)C2=NC(=C(N2)C3=CC=NC=C3)C4=CC(=C(C=C4)Cl)O
In short: as §1

[6] = compound: C1=CC=C2C(=C1)C3=NNC4=CC=CC(=C43)C2=O
In short: as §1

[7] = compound: C1CCN(C1)C(=O)NC2=CC=CC(=C2)NC3=NC=C(C(=N3)NCCC4=CN=CN4)Br
In short: as §1

[8] = compound: C1CN(CCC1(CC2=CC=C(C=C2)Cl)N)C3=NC=NC4=C3C=CN4
In short: as §1

IRAK-1-4 Inhibitor I = compound: C1COCCN1CCN2C3=CC=CC=C3N=C2NC(=O)C4=CC(=CC=C4)[N+](=O)[O-] [IRAK-1-4 Inhibitor I]
In short: as §1

ibrutinib = compound: C=CC(=O)N1CCC[C@@H](n2nc(-c3ccc(Oc4ccccc4)cc3)c3c(N)ncnc32)C1 [ibrutinib]
In short: as §1

[9] = compound: CC(=O)c1cnc2ccc(-c3cc(Cl)c(O)c(Cl)c3)nc2c1N[C@H]1CC[C@H](CN(C)C)CC1
In short: as §1

ralimetinib = compound: CC(C)(C)Cn1c(N)nc2ccc(-c3[nH]c(C(C)(C)C)nc3-c3ccc(F)cc3)nc21 [ralimetinib]
In short: as §1

[10] = compound: CC(C)(O)CC(=O)NCCn1ccc2ncnc(Nc3ccc(Oc4cccc(C(F)(F)F)c4)c(Cl)c3)c21
In short: as §1

[11] = compound: CC(C)C1=C2N=C(C=C(N2N=C1)NCC3=CC=CC=C3)NCCCCCCN
In short: as §1

[12] = compound: CC1=C(C(CC(=O)N1)C2=CC=C(C=C2)C(F)(F)F)C(=O)NC3=C(C=C4C(=C3)C=NN4)F
In short: as §1

[13] = compound: CC1=C(C2=C(C=C1)C(=O)C3=CC=CC=C3N2CCCN)C
In short: as §1

[14] = compound: CC1=C(C=C(C=C1)NC(=O)C2=CC(=CC=C2)C(C)(C)C#N)NC3=CC4=C(C=C3)N=CN(C4=O)C
In short: as §1

[15] = compound: CC1=C(C=C(C=C1)NC(=O)C2=CC(=CC=C2)N(C)C)NC(=O)C3=CC=C(C=C3)O
In short: as §1

[16] = compound: CC1=CC=C(C=C1)SC2=C3C=C(SC3=CN=C2)C(=O)N
In short: as §1

Measured: log2 fold change

COG1 (UniProt Q8WTW3)
inactive: erlotinib 0.02 | [1] -0.244 | [2] -0.017 | [3] 0.083 | [4] -0.003 | [5] 0.014 | [6] 0 | [7] -0.029 | [8] 0.033 | IRAK-1-4 Inhibitor I 0.015 | ibrutinib 0.015 | [9] 0.008 | ralimetinib 0.022 | [10] -0.045 | [11] 0.009 | [12] 0.016 | [13] -0.114 | [14] 0.007 | [15] 0.001 | [16] 0.042

COPB1 (UniProt P53618)
inactive: erlotinib -0.004 | [1] -0.026 | [2] -0.003 | [3] -0.009 | [4] 0.009 | [5] -0.016 | [6] 0 | [7] -0.046 | [8] -0.003 | IRAK-1-4 Inhibitor I -0.002 | ibrutinib -0.013 | [9] -0.013 | ralimetinib 0.01 | [10] -0.007 | [11] -0.012 | [12] -0.016 | [13] -0.011 | [14] 0.026 | [15] 0.009 | [16] -0.004

CPNE1 (UniProt Q99829)
inactive: erlotinib 0.008 | [1] 0.002 | [2] 0.014 | [3] 0.004 | [4] -0.006 | [5] -0.006 | [6] 0.04 | [7] -0.03 | [8] 0.025 | IRAK-1-4 Inhibitor I 0.022 | ibrutinib 0.007 | [9] 0 | ralimetinib 0.017 | [10] -0.032 | [11] 0.014 | [12] -0.035 | [13] -0.011 | [14] 0.004 | [15] 0.032 | [16] 0.009

CPED1 (UniProt A4D0V7)
inactive: erlotinib -0.02 | [1] -0.15 | [2] -0.035 | [3] 0.009 | [4] -0.058 | [5] -0.014 | [6] -0.011 | [7] 0.002 | [8] -0.009 | IRAK-1-4 Inhibitor I 0.045 | ibrutinib 0.04 | [9] -0.054 | ralimetinib -0.031 | [10] 0.006 | [11] 0.064 | [12] 0.055 | [13] 0.01 | [14] -0.016 | [15] -0.026 | [16] 0.006

COQ9 (UniProt O75208)
inactive: erlotinib -0.015 | [1] -0.075 | [2] -0.001 | [3] 0.041 | [4] 0.046 | [5] 0 | [6] -0.029 | [7] -0.02 | [8] 0.029 | IRAK-1-4 Inhibitor I -0.011 | ibrutinib 0.104 | [9] 0.023 | ralimetinib 0.015 | [10] -0.008 | [11] -0.036 | [12] 0.017 | [13] 0.007 | [14] -0.024 | [15] 0.037 | [16] 0

COG3 (UniProt Q96JB2)
inactive: erlotinib 0.045 | [1] 0.053 | [2] -0.037 | [3] -0.049 | [4] -0.008 | [5] -0.022 | [6] -0.056 | [7] -0.02 | [8] -0.01 | IRAK-1-4 Inhibitor I 0.012 | ibrutinib 0.026 | [9] -0.008 | ralimetinib 0.052 | [10] -0.042 | [11] -0.04 | [12] 0.006 | [13] -0.019 | [14] 0.02 | [15] 0.044 | [16] 0.02

CNP (UniProt P09543)
inactive: erlotinib -0.005 | [1] -0.066 | [2] 0.002 | [3] -0.012 | [4] -0.022 | [5] 0.007 | [6] -0.004 | [7] -0.016 | [8] 0 | IRAK-1-4 Inhibitor I -0.002 | ibrutinib 0.024 | [9] 0.01 | ralimetinib 0.028 | [10] 0.019 | [11] 0.022 | [12] 0.042 | [13] 0.038 | [14] -0.018 | [15] -0.015 | [16] 0.01

Reprinted at random: 2 records from the list, in no set order.
COQ9 (UniProt O75208)
inactive: erlotinib -0.015 | [1] -0.075 | [2] -0.001 | [3] 0.041 | [4] 0.046 | [5] 0 | [6] -0.029 | [7] -0.02 | [8] 0.029 | IRAK-1-4 Inhibitor I -0.011 | ibrutinib 0.104 | [9] 0.023 | ralimetinib 0.015 | [10] -0.008 | [11] -0.036 | [12] 0.017 | [13] 0.007 | [14] -0.024 | [15] 0.037 | [16] 0

CNP (UniProt P09543)
inactive: erlotinib -0.005 | [1] -0.066 | [2] 0.002 | [3] -0.012 | [4] -0.022 | [5] 0.007 | [6] -0.004 | [7] -0.016 | [8] 0 | IRAK-1-4 Inhibitor I -0.002 | ibrutinib 0.024 | [9] 0.01 | ralimetinib 0.028 | [10] 0.019 | [11] 0.022 | [12] 0.042 | [13] 0.038 | [14] -0.018 | [15] -0.015 | [16] 0.01

The results go on:

CNN2 (UniProt Q99439)
inactive: erlotinib -0.004 | [1] 0.017 | [2] 0.044 | [3] -0.046 | [4] 0.001 | [5] 0.036 | [6] 0.017 | [7] 0.029 | [8] 0.018 | IRAK-1-4 Inhibitor I -0.007 | ibrutinib -0.005 | [9] 0 | ralimetinib -0.038 | [10] 0.014 | [11] 0.017 | [12] 0.011 | [13] 0.016 | [14] 0.007 | [15] -0.018 | [16] -0.024

COG2 (UniProt Q14746)
inactive: erlotinib 0.009 | [1] 0.036 | [2] -0.021 | [3] -0.022 | [4] -0.032 | [5] -0.017 | [6] -0.001 | [7] 0.011 | [8] 0.031 | IRAK-1-4 Inhibitor I 0.03 | ibrutinib -0.029 | [9] -0.023 | ralimetinib 0.017 | [10] -0.017 | [11] 0 | [12] 0.023 | [13] -0.035 | [14] -0.019 | [15] 0.062 | [16] -0.009

CPT1A (UniProt P50416)
inactive: erlotinib -0.029 | [1] -0.034 | [2] 0.01 | [3] -0.001 | [4] -0.05 | [5] 0.002 | [6] 0.011 | [7] -0.036 | [8] 0.024 | IRAK-1-4 Inhibitor I -0.008 | ibrutinib 0.042 | [9] -0.021 | ralimetinib -0.016 | [10] 0.008 | [11] -0.026 | [12] -0.009 | [13] -0.041 | [14] -0.05 | [15] -0.008 | [16] 0.017

COQ8A (UniProt Q8NI60)
active: [9] 0.611
inactive: erlotinib 0.154 | [1] 0.014 | [2] -0.057 | [3] 0.008 | [4] -0.083 | [5] 0.029 | [6] 0.105 | [7] -0.01 | [8] 0.007 | IRAK-1-4 Inhibitor I -0.034 | ibrutinib -0.061 | ralimetinib 0.143 | [10] 0.115 | [11] -0.009 | [12] -0.139 | [13] -0.074 | [14] -0.04 | [15] 0 | [16] -0.068

CPSF3 (UniProt Q9UKF6)
inactive: erlotinib -0.04 | [1] -0.035 | [2] -0.038 | [3] 0.029 | [4] 0.027 | [5] -0.01 | [6] 0.034 | [7] 0.037 | [8] -0.001 | IRAK-1-4 Inhibitor I -0.01 | ibrutinib 0.014 | [9] 0.021 | ralimetinib 0.042 | [10] 0.007 | [11] -0.037 | [12] 0.005 | [13] 0.017 | [14] -0.032 | [15] 0.038 | [16] 0.012

CPS1 isoform 3 (UniProt P31327)
inactive: erlotinib -0.015 | [1] -0.082 | [2] -0.12 | [3] 0.005 | [4] 0.023 | [5] 0.011 | [6] 0.041 | [7] 0.022 | [8] 0.071 | IRAK-1-4 Inhibitor I 0.032 | ibrutinib -0.014 | [9] -0.056 | ralimetinib -0.002 | [10] 0.04 | [11] 0.064 | [12] -0.015 | [13] -0.038 | [14] 0.05 | [15] -0.079 | [16] -0.143

COMMD8 (UniProt Q9NX08)
inactive: erlotinib 0.102 | [1] -0.049 | [2] -0.009 | [3] 0.145 | [4] -0.05 | [5] -0.041 | [6] -0.077 | [7] -0.036 | [8] -0.026 | IRAK-1-4 Inhibitor I -0.016 | ibrutinib 0.22 | [9] -0.064 | ralimetinib 0.03 | [10] -0.018 | [11] 0.006 | [12] -0.002 | [13] -0.026 | [14] 0.077 | [15] 0.042 | [16] 0.068

CPOX (UniProt P36551)
inactive: erlotinib -0.017 | [1] 0.003 | [2] -0.005 | [3] -0.013 | [4] 0 | [5] 0.029 | [6] 0.041 | [7] -0.011 | [8] 0.018 | IRAK-1-4 Inhibitor I 0.052 | ibrutinib -0.02 | [9] 0.095 | ralimetinib 0.003 | [10] -0.058 | [11] -0.005 | [12] 0.008 | [13] -0.01 | [14] 0.012 | [15] 0.007 | [16] 0

COPS3 isoform 2 (UniProt Q9UNS2)
inactive: [1] -0.098 | [3] -0.065 | [6] 0.17 | [7] 0.073 | [8] 0.039 | [9] 0.173 | [12] -0.217 | [16] -0.007
